The list shows a part of the results.

The test system of this test is Caenorhabditis elegans N2. In words: aldicarb interaction hit call (worm growth perturbed in combination with 10 uM aldicarb in both replicates, no effect as single agent) (binary (1 = interacts)); higher = interacts with aldicarb (growth perturbed). The settings on record: first compound 1.5 µM; aldicarb concentration 10 µM; 6 days; 20 °C.
For the molecule `FC(F)(F)c1nnc(-c2ccccc2)o1` [wact-619] + CNC(=O)O/N=C/C(C)(C)SC [aldicarb], the “aldicarb interaction hit call” value was inactive: 0.

Take `Cc1cc(-c2nc3ncccc3o2)ccc1NC(=O)c1cccc(Cl)c1` [wact-137] + CNC(=O)O/N=C/C(C)(C)SC [aldicarb]: the “aldicarb interaction hit call” value was inactive: 0.

Turning to `CC(C)NCCCCOc1ccc(Br)cc1Cl.O=C(O)C(=O)O` [wact-67] + CNC(=O)O/N=C/C(C)(C)SC [aldicarb], the “aldicarb interaction hit call” value is inactive: 0.

In the case of `c1ccc2c(c1)CCC2NCc1c[nH]nc1-c1cc2ccccc2o1` (configuration not stated) [wact-266] + CNC(=O)O/N=C/C(C)(C)SC [aldicarb], the “aldicarb interaction hit call” value is inactive: 0.

For `O=C(Nc1ccc(OC(F)F)cc1)Nc1cccc(C(F)(F)F)c1` [wact-112] + CNC(=O)O/N=C/C(C)(C)SC [aldicarb], the “aldicarb interaction hit call” value is inactive: 0.

Turning to `CCOc1ccc(S(=O)(=O)Nc2cc(C(=O)OC)ccc2C)cc1` [wact-518] + CNC(=O)O/N=C/C(C)(C)SC [aldicarb], the “aldicarb interaction hit call” value was inactive: 0.

On to `COc1c(Cl)cccc1NC(=O)c1cccc(Cl)c1` [wact-509] + CNC(=O)O/N=C/C(C)(C)SC [aldicarb], for which the “aldicarb interaction hit call” value was inactive: 0.

For `CNCc1ccc(-c2cc(Cl)cc(Cl)c2)o1` [wact-196] + CNC(=O)O/N=C/C(C)(C)SC [aldicarb], the “aldicarb interaction hit call” value was inactive: 0.

On to `COc1ccc(-c2cc(-c3ccc(OC)cc3O)n[nH]2)cc1` [wact-601] + CNC(=O)O/N=C/C(C)(C)SC [aldicarb], for which the “aldicarb interaction hit call” value is inactive: 0.

For `Cc1ccccc1Cn1c(=N)n(CC(O)c2ccc(Cl)c(Cl)c2)c2ccccc21.Cl` (configuration not stated) [wact-625] + CNC(=O)O/N=C/C(C)(C)SC [aldicarb], the “aldicarb interaction hit call” value is inactive: 0.

For the molecule `O=C(Nc1nc(-c2ccccc2)cs1)c1cccs1` [wact-590] + CNC(=O)O/N=C/C(C)(C)SC [aldicarb], the “aldicarb interaction hit call” value was inactive: 0.

For the molecule `O=[N+]([O-])c1cc(C(F)(F)F)ccc1NCc1cccnc1` [wact-417] + CNC(=O)O/N=C/C(C)(C)SC [aldicarb], the “aldicarb interaction hit call” value is inactive: 0.

Values taken from the supplement of paper PMC5393889.
